Results reported in publication PMC12621043, “Un-LOK-ing a New Approach for Conformational Selective Targeting of STK10 (LOK)” (ACS Medicinal Chemistry Letters, 2025).

Test system: internal kinase selectivity panel (∼90 kinases)
Assay: DSF-based selectivity screening, whole panel
Assay type: binding
Settings: number of kinases showing a thermal shift >5 °C divided by the total number of kinases screened

Question: Which “S (5 °C) selectivity score” value does the source give for `O=C(NCc1ccccc1Cl)Nc1ccc2cc1OCCOCCNc1ccn3ncc-2c3n1` [compound 17] here?
Answer: Its value is 0.09.

Question: Which “S (5 °C) selectivity score” value does the source give for `Cc1cc(Br)ccc1CNC(=O)Nc1ccc2cc1OCCOCCNc1ccn3ncc-2c3n1` [compound 24] here?
Answer: The value was 0.06.

Question: How did the “S (5 °C) selectivity score” value turn out when `COc1ccc(CNC(=O)Nc2ccc3cc2OCCOCCNc2ccn4ncc-3c4n2)cc1F` [compound 32] was run?
Answer: Its value is 0.09.

Question: Which “S (5 °C) selectivity score” value does the source give for `O=C(NCc1ccc(C(F)(F)F)cc1)Nc1ccc2cc1OCCOCCNc1ccn3ncc-2c3n1` [compound 28] here?
Answer: The value was 0.08.

Question: Which “S (5 °C) selectivity score” value does the source give for `Cc1cc(Cl)ccc1CNC(=O)Nc1ccc2cc1OCCOCCNc1ccn3ncc-2c3n1` [compound 23] here?
Answer: The value was 0.08.

Question: Which “S (5 °C) selectivity score” value does the source give for `O=C(NCc1ccccc1)Nc1ccc2cc1OCCOCCNc1ccn3ncc-2c3n1` [compound 16] here?
Answer: Its value is 0.11.

Question: `O=C(NCc1ccc(Cl)cc1F)Nc1ccc2cc1OCCOCCNc1ccn3ncc-2c3n1` [compound 21] was tested. Which “S (5 °C) selectivity score” value did it give?
Answer: Its value is 0.10.

Question: `O=C(NCc1cccc(Cl)c1)Nc1ccc2cc1OCCOCCNc1ccn3ncc-2c3n1` [compound 18] was tested. Which “S (5 °C) selectivity score” value did it give?
Answer: The value was 0.07.

Question: With `O=C(NCc1ccc(Cl)cc1Cl)Nc1ccc2cc1OCCOCCNc1ccn3ncc-2c3n1` [compound 20] as the compound, how does the “S (5 °C) selectivity score” value read?
Answer: The value was 0.07.

Question: With `C[C@H](NC(=O)Nc1ccc2cc1OCCOCCNc1ccn3ncc-2c3n1)c1ccccc1` [compound 34] as the compound, how does the “S (5 °C) selectivity score” value read?
Answer: Its value is 0.10.

Question: Which “S (5 °C) selectivity score” value does the source give for `O=C(NCc1ccccc1C(F)(F)F)Nc1ccc2cc1OCCOCCNc1ccn3ncc-2c3n1` [compound 27] here?
Answer: Its value is 0.08.

Question: For `CN1CCN(C(=O)Nc2ccc3cc2OCCOCCNc2ccn4ncc-3c4n2)CC1` [compound 35], which “S (5 °C) selectivity score” value is on record?
Answer: The value was 0.02.

Question: With `COc1ccccc1CNC(=O)Nc1ccc2cc1OCCOCCNc1ccn3ncc-2c3n1` [compound 29] as the compound, how does the “S (5 °C) selectivity score” value read?
Answer: Its value is 0.06.

Question: Which “S (5 °C) selectivity score” value does the source give for `Cc1ccc(F)cc1CNC(=O)Nc1ccc2cc1OCCOCCNc1ccn3ncc-2c3n1` [compound 26] here?
Answer: Its value is 0.08.

Question: With `COc1cc(CNC(=O)Nc2ccc3cc2OCCOCCNc2ccn4ncc-3c4n2)ccc1F` [compound 33] as the compound, how does the “S (5 °C) selectivity score” value read?
Answer: Its value is 0.10.

Question: Which “S (5 °C) selectivity score” value does the source give for `O=C(NCc1ccc(Cl)cc1)Nc1ccc2cc1OCCOCCNc1ccn3ncc-2c3n1` [compound 19] here?
Answer: The value was 0.10.

Question: `COc1cccc(CNC(=O)Nc2ccc3cc2OCCOCCNc2ccn4ncc-3c4n2)c1` [compound 30] was tested. Which “S (5 °C) selectivity score” value did it give?
Answer: Its value is 0.07.
